Data as given in PMC6510822, “Identification of anticancer OATP2B1 substrates by an in vitro triple-fluorescence-based cytotoxicity screen” (Archives of Toxicology, 2019).
Read-outs that look alike come from different tables or passages of the source.

Tested on: A431 cells
Experiment: Fluorescence-based cytotoxicity assay, parental A431 eGFP
Settings: Homo sapiens

CC/C(=C(\c1ccccc1)c1ccc(OCCN(C)C)cc1)c1ccccc1 [NSC-180973, Tamoxifen]
IC50 (A-431, read-out: IC50 (µM) A431 eGFP, co-culture): 9.76 µM | IC50 (A-431, read-out: IC50 (µM) A431 eGFP, monoculture): 11.3 µM
